The results in this text go back to patent US20150331992A1, “CANCER PROGNOSIS AND THERAPY BASED ON SYNTHEIC LETHALITY” (Ramot at Tel-Aviv University Ltd., priority 2014, published 2015).

The subject of the assay is VHL-deficient and VHL-restored renal carcinoma cells (RCC4). The experiment in a line: Growth inhibition of VHL-deficient vs VHL-restored renal cells by drugs at mid-effective concentration. It counts as cell-based. Particulars: mid-effective concentration of each drug; both cell lines in triplicates; FIG. 5. The method, then:
A range of concentrations for each drug were tested to identify a suitable working concentration in which there was an effect on cells growth, but not complete death (which is more likely to be due to non-specific toxicity).

Consider `CN[C@@H]1C[C@H]2O[C@@](C)([C@@H]1OC)n1c3ccccc3c3c4c(c5c6ccccc6n2c5c31)C(=O)NC4` [Staurosporine], for which the “Sensitivity (percentage of growth inhibition) of VHL-deficient cells compared to isogenic cells in which pVHL was restored” value is “specificity was however not observed”.
